Assay results: the supplement of paper PMC12819154, “High-throughput peptide-centric local stability assay extends protein–ligand identification to membrane proteins, tissues and bacteria” (Nature Structural & Molecular Biology, 2025)
The list shows a part of the results. Most entries show no effect beyond the scatter of the controls.

The chains behind the UniProt entries cited, without tags or fusion partners. Where a name states a change or a piece, a line headed by the entry shows the natural chain unless it says otherwise.
UniProt P51175: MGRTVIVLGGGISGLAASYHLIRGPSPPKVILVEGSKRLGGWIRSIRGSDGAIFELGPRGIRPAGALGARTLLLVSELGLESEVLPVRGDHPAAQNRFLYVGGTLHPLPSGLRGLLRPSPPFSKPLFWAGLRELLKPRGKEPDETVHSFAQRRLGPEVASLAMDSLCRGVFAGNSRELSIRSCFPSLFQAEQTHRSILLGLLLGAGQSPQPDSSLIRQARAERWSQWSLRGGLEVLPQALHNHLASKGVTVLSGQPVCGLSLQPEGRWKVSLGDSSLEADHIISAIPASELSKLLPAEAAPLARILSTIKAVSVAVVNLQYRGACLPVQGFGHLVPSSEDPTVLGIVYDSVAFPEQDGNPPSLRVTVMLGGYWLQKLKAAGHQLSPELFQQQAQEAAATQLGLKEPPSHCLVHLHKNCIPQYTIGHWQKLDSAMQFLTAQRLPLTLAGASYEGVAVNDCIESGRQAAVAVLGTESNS
UniProt P42925: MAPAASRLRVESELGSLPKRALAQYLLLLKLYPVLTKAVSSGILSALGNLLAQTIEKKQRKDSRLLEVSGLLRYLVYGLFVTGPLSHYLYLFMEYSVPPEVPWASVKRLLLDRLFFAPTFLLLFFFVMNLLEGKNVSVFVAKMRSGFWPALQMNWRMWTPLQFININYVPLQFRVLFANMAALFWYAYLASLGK
UniProt P48381: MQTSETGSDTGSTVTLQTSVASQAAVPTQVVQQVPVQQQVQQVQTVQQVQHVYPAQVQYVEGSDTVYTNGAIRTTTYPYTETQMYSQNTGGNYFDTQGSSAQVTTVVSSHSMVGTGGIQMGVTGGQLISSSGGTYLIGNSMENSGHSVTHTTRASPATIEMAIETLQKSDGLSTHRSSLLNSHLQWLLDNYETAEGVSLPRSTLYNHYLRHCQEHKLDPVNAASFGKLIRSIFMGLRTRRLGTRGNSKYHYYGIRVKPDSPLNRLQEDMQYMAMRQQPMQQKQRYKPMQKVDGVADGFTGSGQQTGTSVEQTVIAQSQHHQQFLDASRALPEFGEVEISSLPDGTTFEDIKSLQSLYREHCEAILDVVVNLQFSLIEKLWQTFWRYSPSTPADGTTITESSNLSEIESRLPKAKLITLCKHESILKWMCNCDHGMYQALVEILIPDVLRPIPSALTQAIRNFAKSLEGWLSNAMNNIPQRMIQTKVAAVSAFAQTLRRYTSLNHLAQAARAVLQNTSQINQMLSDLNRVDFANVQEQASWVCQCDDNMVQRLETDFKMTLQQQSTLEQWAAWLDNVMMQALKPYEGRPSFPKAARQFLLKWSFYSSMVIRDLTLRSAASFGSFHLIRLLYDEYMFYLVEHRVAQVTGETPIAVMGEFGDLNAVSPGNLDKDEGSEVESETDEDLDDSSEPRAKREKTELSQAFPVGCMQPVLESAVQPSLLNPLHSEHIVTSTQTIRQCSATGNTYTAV
UniProt P50431: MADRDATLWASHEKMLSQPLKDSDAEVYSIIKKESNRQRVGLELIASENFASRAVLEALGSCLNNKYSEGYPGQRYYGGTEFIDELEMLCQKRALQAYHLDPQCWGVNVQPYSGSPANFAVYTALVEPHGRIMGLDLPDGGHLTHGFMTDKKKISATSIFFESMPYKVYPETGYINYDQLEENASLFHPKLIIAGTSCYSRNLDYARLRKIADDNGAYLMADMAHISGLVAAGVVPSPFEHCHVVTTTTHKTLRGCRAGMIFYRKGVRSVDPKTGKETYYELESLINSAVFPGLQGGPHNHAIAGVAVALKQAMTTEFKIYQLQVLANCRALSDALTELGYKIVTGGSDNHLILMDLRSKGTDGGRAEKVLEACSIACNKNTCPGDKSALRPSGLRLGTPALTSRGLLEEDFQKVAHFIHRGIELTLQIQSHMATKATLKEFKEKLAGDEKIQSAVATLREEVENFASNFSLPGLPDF
UniProt P47857: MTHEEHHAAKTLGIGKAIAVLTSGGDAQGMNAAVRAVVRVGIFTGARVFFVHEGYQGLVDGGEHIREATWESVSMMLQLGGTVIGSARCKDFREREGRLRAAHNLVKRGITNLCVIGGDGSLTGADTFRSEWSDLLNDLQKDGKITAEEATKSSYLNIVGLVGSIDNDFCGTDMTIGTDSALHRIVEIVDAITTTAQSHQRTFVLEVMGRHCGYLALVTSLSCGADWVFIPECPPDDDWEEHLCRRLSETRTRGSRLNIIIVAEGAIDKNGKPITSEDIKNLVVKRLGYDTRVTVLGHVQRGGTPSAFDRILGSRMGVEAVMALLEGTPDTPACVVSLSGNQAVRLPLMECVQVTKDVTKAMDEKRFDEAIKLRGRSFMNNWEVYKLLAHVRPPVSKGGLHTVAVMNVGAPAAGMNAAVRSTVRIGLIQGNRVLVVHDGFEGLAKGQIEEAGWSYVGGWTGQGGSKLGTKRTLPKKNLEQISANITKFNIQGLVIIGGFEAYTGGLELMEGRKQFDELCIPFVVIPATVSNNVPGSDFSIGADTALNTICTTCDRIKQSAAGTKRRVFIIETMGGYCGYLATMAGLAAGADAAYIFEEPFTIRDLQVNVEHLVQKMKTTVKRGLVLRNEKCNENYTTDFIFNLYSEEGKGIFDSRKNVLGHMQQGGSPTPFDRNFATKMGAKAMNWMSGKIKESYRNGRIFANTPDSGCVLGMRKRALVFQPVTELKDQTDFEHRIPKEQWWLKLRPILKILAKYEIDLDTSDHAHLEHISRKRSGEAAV
UniProt P36536: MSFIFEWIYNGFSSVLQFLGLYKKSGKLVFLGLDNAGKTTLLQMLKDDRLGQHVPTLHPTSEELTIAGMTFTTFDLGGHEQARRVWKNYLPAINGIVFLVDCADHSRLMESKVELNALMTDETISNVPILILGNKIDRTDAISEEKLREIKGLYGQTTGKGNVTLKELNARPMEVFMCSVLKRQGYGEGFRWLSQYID
UniProt P35700: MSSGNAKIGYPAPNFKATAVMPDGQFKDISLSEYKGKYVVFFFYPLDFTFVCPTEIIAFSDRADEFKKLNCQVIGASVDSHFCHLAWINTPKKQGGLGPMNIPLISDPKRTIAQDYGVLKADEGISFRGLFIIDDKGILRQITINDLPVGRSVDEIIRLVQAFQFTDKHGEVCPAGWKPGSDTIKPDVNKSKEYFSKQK
UniProt P52479, whole entry: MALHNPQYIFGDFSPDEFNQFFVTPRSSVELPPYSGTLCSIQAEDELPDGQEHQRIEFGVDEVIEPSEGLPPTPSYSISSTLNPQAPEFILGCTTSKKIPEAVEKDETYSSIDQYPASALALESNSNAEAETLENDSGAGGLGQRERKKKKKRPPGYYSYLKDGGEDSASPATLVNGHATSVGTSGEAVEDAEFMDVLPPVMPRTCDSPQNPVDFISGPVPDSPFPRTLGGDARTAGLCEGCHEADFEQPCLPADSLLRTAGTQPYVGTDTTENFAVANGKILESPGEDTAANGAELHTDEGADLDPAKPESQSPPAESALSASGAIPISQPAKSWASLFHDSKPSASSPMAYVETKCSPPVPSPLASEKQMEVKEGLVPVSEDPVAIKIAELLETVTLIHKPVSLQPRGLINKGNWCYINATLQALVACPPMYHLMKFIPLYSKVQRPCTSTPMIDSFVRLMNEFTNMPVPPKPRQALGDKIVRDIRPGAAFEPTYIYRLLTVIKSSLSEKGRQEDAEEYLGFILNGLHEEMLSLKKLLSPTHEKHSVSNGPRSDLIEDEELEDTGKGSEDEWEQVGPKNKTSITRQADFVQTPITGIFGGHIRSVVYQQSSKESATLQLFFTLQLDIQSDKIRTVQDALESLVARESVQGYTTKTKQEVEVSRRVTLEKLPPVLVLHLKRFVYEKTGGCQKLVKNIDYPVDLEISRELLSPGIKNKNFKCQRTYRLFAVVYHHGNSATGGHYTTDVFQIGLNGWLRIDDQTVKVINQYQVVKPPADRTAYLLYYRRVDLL
UniProt P35492: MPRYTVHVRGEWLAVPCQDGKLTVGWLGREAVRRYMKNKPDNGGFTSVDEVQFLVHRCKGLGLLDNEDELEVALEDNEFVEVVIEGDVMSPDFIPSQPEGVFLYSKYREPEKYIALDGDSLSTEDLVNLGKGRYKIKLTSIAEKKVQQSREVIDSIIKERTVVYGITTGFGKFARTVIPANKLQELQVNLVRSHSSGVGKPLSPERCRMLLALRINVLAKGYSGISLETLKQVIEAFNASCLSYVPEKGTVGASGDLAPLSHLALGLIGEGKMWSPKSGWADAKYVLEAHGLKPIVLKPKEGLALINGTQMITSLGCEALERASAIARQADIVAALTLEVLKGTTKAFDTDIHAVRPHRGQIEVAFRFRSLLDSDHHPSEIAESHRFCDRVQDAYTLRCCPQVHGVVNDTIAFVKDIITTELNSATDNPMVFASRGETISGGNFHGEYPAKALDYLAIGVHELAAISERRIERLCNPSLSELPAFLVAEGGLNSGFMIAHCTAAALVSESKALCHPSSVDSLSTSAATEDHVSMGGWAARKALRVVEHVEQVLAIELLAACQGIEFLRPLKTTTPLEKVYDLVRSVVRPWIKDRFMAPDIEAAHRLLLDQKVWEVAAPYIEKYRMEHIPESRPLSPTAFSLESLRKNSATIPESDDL
UniProt P41209: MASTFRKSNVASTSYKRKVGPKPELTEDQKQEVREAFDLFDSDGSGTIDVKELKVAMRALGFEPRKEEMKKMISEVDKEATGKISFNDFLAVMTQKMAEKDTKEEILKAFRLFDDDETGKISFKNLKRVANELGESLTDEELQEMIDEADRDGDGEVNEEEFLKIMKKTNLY
UniProt P51791: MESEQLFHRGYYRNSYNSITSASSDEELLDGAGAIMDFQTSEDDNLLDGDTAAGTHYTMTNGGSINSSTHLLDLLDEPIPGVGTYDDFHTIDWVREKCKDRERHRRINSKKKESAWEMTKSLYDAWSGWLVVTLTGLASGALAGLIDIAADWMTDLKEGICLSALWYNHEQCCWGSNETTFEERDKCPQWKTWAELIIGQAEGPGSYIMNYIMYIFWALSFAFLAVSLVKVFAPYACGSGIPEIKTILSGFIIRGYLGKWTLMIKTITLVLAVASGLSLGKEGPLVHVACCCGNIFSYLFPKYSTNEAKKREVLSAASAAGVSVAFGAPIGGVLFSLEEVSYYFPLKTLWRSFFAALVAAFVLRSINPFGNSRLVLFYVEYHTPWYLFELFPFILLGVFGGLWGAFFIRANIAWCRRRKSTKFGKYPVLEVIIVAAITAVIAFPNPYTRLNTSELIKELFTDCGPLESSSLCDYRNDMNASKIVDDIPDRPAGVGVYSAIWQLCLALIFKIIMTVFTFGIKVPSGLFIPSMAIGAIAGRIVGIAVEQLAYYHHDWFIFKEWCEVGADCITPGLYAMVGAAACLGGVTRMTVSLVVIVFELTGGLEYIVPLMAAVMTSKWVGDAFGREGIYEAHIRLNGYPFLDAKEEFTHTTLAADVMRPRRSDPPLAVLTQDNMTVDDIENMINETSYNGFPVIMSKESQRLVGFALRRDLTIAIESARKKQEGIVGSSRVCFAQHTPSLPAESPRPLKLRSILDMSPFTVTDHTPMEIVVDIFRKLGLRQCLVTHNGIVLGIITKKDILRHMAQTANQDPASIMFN
UniProt P50284: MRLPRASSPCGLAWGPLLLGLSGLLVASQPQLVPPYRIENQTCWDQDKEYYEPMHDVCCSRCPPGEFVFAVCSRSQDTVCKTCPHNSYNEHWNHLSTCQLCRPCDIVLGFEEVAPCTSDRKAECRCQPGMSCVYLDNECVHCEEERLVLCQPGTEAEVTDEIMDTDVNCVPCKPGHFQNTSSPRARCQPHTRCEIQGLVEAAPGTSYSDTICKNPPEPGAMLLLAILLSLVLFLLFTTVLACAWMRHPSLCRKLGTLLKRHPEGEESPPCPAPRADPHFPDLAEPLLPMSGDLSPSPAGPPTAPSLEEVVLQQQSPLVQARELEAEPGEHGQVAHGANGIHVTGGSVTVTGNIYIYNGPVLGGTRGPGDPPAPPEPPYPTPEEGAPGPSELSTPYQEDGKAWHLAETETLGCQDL
UniProt P50543: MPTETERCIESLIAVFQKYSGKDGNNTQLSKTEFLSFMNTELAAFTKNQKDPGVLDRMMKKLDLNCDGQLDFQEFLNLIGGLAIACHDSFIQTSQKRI
UniProt P52503, whole entry: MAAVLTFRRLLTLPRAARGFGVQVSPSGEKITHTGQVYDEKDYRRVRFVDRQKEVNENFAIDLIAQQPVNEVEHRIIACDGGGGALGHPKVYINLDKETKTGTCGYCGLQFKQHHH
UniProt P46471: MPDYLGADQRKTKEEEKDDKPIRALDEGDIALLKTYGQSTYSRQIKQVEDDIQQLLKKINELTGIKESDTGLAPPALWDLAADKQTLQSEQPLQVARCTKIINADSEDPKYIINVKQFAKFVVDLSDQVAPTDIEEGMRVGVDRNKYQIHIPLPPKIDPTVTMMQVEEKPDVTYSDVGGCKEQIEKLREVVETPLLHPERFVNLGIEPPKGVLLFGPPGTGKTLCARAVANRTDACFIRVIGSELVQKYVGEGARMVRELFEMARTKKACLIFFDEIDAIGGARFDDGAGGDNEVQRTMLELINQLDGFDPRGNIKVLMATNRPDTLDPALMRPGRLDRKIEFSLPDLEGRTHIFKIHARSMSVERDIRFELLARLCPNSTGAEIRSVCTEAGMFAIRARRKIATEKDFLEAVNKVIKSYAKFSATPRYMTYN

Each target was assayed with CN[C@@H]1C[C@H]2O[C@@](C)([C@@H]1OC)n1c3ccccc3c3c4c(c5c6ccccc6n2c5c31)C(=O)NC4 [staurosporine] (assay: log2 fold change of tryptic peptide abundance, ligand vs vehicle (limited proteolysis) (log2 ratio); higher = more trypsin-susceptible (destabilized)). Details: ligand concentration: 20 uM; sample: mouse liver crude lysate; replicate design: treated separately.
Target “UniProt P51859 (peptide sequence: GYPHWPAR, peptide start residue: 17)” has a log2 fold change of 0.169.
“UniProt P47791 (peptide sequence: MVCANKEEK, peptide start residue: 443)” gave a log2 fold change of 0.382.
“UniProt P40936 (peptide sequence: VLRCDVTK, peptide start residue: 139)” gave a log2 fold change of -0.668.
Target “UniProt P51175 (peptide sequence: AVSVAVVNLQYR, peptide start residue: 311)” has a log2 fold change of 0.211.
Work on “UniProt P35802 (peptide sequence: SKEEQELHDIHSTR, peptide start residue: 256)” yielded a log2 fold change of 0.111.
In the case of “UniProt P42925 (peptide sequence: ALAQYLLLLK, peptide start residue: 21)”, the log2 fold change is reported as 0.993.
“UniProt P48381 (peptide sequence: STLYNHYLR, peptide start residue: 202)” gave a log2 fold change of 0.338.
For “UniProt P53690 (peptide sequence: GIQQLYGSK, peptide start residue: 278)”, the log2 fold change was -0.154.
“UniProt P35689 (peptide sequence: ISCSDVPDLVRDPPHGR, peptide start residue: 1109)” was tested, and the log2 fold change was 0.191.
“UniProt P50172 (peptide sequence: MGAHVVLTAR, peptide start residue: 57)” showed a log2 fold change of -0.788.
For “UniProt P51163 (peptide sequence: DAKEDDSGLDPYIQELR, peptide start residue: 8)”, the log2 fold change was -0.282.
In the case of “UniProt P50431 (peptide sequence: AGMIFYRK, peptide start residue: 258)”, the log2 fold change is reported as -0.379.
Work on “UniProt P47857 (peptide sequence: VFFVHEGYQGLVDGGEHIR, peptide start residue: 48)” yielded a log2 fold change of -0.229.
In the case of “UniProt P35979 (peptide sequence: ALKEPPRDR, peptide start residue: 84)”, the log2 fold change is reported as 0.23.
For “UniProt P36536 (peptide sequence: TDAISEEK, peptide start residue: 139)”, the log2 fold change was -0.357.
“UniProt P45376 (peptide sequence: VCALMSCAK, peptide start residue: 298)” gave a log2 fold change of 0.409.
In the case of “UniProt P35700 (peptide sequence: DISLSEYK, peptide start residue: 28)”, the log2 fold change is reported as -0.906.
In the case of “UniProt P37889 (peptide sequence: FRAEEDIDPNSVHSVPR, peptide start residue: 405)”, the log2 fold change is reported as 0.269.
In the case of “UniProt P52479 (peptide sequence: TVQDALESLVAR, peptide start residue: 636)”, the log2 fold change is reported as 0.153.
In the case of “UniProt P41245 (peptide sequence: AAQMMGEK, peptide start residue: 58)”, the log2 fold change is reported as -0.32.
“UniProt P47713 (peptide sequence: CSVSLSNVEAR, peptide start residue: 725)” was tested, and the log2 fold change was -0.0388.
For “UniProt P49442 (peptide sequence: QNMENKFPGLGKK, peptide start residue: 63)”, the log2 fold change was -0.749.
For “UniProt P35492 (peptide sequence: LTVGWLGR, peptide start residue: 22)”, the log2 fold change was 0.107.
Work on “UniProt P41209 (peptide sequence: LFDDDETGK, peptide start residue: 112)” yielded a log2 fold change of -0.0978.
In the case of “UniProt P46638 (peptide sequence: AITSAYYR, peptide start residue: 75)”, the log2 fold change is reported as 0.182.
For “UniProt P51791 (peptide sequence: VCFAQHTPSLPAESPRPLK, peptide start residue: 732)”, the log2 fold change was -0.294.
Work on “UniProt P50284 (peptide sequence: RHPEGEESPPCPAPR, peptide start residue: 260)” yielded a log2 fold change of 0.0293.
With “UniProt P50543 (peptide sequence: NQKDPGVLDR, peptide start residue: 48)” the log2 fold change was 0.0603.
In the case of “UniProt P52875 (peptide sequence: KKDEEFQR, peptide start residue: 199)”, the log2 fold change is reported as -0.278.
“UniProt P52503 (peptide sequence: ITHTGQVYDEKDYRR, peptide start residue: 31)” showed a log2 fold change of 0.246.
“UniProt P46471 (peptide sequence: IINADSEDPKYIINVK, peptide start residue: 101)” was tested, and the log2 fold change was -0.156.
